No constants are given. Whether binding was seen depends on the method and setting. In cells and extracts the contact can be indirect. Some binding calls cover weakened binding; strength is not graded here. Tags and fused reporters may be left off the sequences shown.
What was measured:
Flag-WWC1 [1] = biological target: Flag-WWC1 (UniProt Q8IX03); experiment: co-IP; HEK293T cells transfected with Myc-JCAD, HA-LATS2 and Flag-WWC1 together; competition by LATS2 overexpression; Flag magnetic beads
Flag-WWC1 [2] = biological target: Flag-WWC1 (UniProt Q8IX03); experiment: co-IP; lysates of cells co-transfected with tagged JCAD and Flag-WWC1 (wild type or mutants) incubated with Flag magnetic beads at 4°C overnight, washed, boiled, immunoblotted; HEK293T named for Figure 8B, cells not named for Figures 8F and 8G

The chains behind the UniProt entries cited, without tags or fusion partners.
UniProt Q8IX03: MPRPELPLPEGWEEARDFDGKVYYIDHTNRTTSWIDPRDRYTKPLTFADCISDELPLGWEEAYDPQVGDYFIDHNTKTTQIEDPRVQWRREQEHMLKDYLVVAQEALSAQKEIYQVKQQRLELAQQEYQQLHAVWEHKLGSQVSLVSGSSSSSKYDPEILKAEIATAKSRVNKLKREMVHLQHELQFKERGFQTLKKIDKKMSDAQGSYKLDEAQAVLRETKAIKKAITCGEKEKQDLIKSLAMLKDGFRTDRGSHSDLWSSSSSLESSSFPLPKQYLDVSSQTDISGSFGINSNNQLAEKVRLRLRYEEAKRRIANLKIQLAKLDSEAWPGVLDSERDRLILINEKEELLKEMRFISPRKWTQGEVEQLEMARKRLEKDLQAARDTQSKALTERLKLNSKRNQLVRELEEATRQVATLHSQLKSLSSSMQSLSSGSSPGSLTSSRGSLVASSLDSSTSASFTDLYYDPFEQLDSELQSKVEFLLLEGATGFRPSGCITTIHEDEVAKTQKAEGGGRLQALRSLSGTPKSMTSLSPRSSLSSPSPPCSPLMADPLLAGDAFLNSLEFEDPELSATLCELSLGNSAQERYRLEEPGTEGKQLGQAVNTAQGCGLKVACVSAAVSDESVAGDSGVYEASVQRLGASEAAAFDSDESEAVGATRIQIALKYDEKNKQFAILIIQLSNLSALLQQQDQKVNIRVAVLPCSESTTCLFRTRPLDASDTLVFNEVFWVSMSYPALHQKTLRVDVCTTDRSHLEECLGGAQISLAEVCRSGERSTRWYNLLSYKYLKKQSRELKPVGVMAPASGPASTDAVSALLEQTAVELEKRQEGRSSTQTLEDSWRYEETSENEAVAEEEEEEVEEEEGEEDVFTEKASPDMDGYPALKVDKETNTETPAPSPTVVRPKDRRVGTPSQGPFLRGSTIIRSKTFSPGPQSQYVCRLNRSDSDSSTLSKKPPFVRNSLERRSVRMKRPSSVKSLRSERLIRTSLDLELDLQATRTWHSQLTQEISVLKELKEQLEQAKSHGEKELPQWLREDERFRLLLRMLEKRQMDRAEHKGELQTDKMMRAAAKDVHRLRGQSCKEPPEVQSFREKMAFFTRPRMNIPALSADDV

- binding (Flag-WWC1 [1]): binds
- binding (Flag-WWC1 [2]): binds
B1: Myc-JCAD, wild type (protein, UniProt Q9P266 1-1359)
chain: MYSVEDLLISHGYKLSRDPPASREDNPKGRQAARTGTRAGQGLQNGHEDGPAALAHRKTSAGKGHVSDSESRRSTPRGHGEPQSTSASRTSEAGFCNQPPSAWSSHPPTGNDQAYRRRGRQEARSQKPREHENLEARGMAQAHSLPVHVREGPWEVGGRSEHVMKKPVWEEELRMSGPAKWQNVSLESWNQPRKLGRQMSDGDGERLFQDLYPFIQGEHVLNSQNKGKSRSLPRVLSPESLSCTEIPIPLNERHSPKMPPYPPTCAPNLDSTRNSEKSGCSAPFPRPKFGRPLKPPSYSSHQQSRGGADSSDSQDSQQMDAYVPRHELCLSDPGLEPPVYVPPPSYRSPPQNIPNPYLEDTVPINVCGGHSQQQSPTEKAGASGQPPSGPPGTGNEYGVSPRLPQGLPAHPRPVTAYDGFVQYIPFDDPRLRHFKLAQPQGFCEDIKLDDKSYNSSPVTAQEPAHGGMQPDGAIWNPQSLIPPSGDERGLVLADSSPRWLWGQPPGDGENSGLPNQRDRCVARGQWPDVRGSQHGHTGRQVSSPYSQGESTCETQTKLKKFQTGTRTKKSSKKKMNETIFCLVSIPVKSESHLPDRDMDNNDLKPSADQKNGSDKSPALQEQSLLSMSSTDLELQALTGSMGGRTEFQKQDLGEPEEDRQTNDLSFIHLTKHRELKHSGSWPGHRYRDQQTQTSFSEEPQSSQLLPGAKLGGPSRAALSPKCSDPAASEAQTHTAFPTGDHKQRPSARNLKGHRSLSPSSNSAFSRTSLSVDQAPTPKAGRSQPCVDVHGLGAHPGPKREVVKGEPTGPCNSKQLFGQFLLKPVSRRPWDLISQLESFNKELQEEEESSSSSSSSSSSSEESEAEPQQENRAHCRQEDVGFRGNSPEMRVEPQPRMWVPESPVCRSGRGESKSESWSEELQPGHPRAWPPSPGRFRVEEGGGAPFCSADGSTSAEKRHLEVSNGMDELAGSPFPVTRMSSRSSDAKPLPASYPAEPREPQESPKITSAFSSVKPSEAVPRKFDSGGERGAGLPLSLSNKNRGLSAPDLRSVGLTPGQEQGASELEGSLGEASTIEIPPGESLQARAARILGIEVAVESLLPGIRRAGQNQPAEPDASACTPESPQEELLSRPAPADVPRVSTDAFYGRRKCGWTKSPLFVGDRDSARRAPQAFEHSDVDGVVTSTDPVPEPEPSPLESKFFEQKDVETKPPFRSTLFHFVERTPSVAGSEKRLRSPSKVIESLQEKLASPPRRADPDRLMRMKEVSSVSRMRVLSFRNADSQEDAEELKATTRGQAGLPGGLVSPGSGDRAQRLGHSLSVSKDSISREEKEHPAAQKEKSMDQDFWCPDSYDPSRVERV

From publication PMC10955226
